From patent US8273344B2, “Recombinant adeno-associated virus expressing human antisense gene CyP2J2 and its preparation methods” (priority 2004, dated 2012)
Some results were stated once for a whole list of compounds, not compound by compound. At least one structure is not confirmed: it was looked up by name or label, or the drawing left a doubt.

Test system: four tumor cell lines
Assay: Proliferation of four kinds of tumor cells in vitro
Assay type: cell-based, human
Conditions: P<0.01
Description: The epoxygenase metabolizes arachidonic acid to yield endogenous epoxyeicosatrienoic acids. Thus, the EETs concentration is increased indirectly. This can directly verity that the function of CYP epoxygenase for promoting proliferation of tumor cells.

Question: How did the “proliferation of tumor cells relative to basal state” value turn out when C#CCCCCCCCCCCCCCCCC(=O)O [17-ODYA] was run?
Answer: below 50 % of basal state
